Whole data set: some 33,000 sequences, median “E-score (-0.5 to 0.5)” near -8e-05, cut for the highest 2% near 0.23. This is one part of the list.
target: T1, Nrg2 (UniProt P38082); assay: PBM E-score (8-mer binding enrichment) (E-score (-0.5 to 0.5)); higher = stronger / more preferred TF binding; settings: protein concentration: 100 nM; construct: GST-full length
T1 sequence: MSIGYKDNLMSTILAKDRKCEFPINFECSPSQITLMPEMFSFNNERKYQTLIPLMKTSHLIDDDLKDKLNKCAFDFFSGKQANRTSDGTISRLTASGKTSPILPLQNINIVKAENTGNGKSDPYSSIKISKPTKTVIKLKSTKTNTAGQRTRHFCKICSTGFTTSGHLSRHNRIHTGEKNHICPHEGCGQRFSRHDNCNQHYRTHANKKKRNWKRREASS
Method in brief: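 Yeast transcription factors carrying a GST tag, as full-length proteins or DNA-binding domains, were produced by PURExpress in vitro transcription/translation. About 100-200 nM protein was applied to universal all-10-mer Agilent arrays, double-stranded by primer extension on fresh or once-stripped slides. Bound protein was detected with fluorescent anti-GST, and scans were normalised with masliner. The Universal PBM Analysis Suite gave each ungapped eight-base word, pooled with its reverse complement, an E-score, a modified Wilcoxon-Mann-Whitney statistic.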

Sequence | PBM E-score
GGCCGGTA | -0.0376
ATGCCGGA | -0.138
CCTTATAG | 0.00764
ACCCTTCA | 0.0934
CCATATCG | 0.192
ACTAAGCC | -0.0209
TAGATTGA | 0.0226
ATGCAATC | 0.0876
AAGGCGCG | -0.13
ATTCCAAT | -0.0363
AAACCCGC | 0.167
CACACGAA | 0.0988
CTTCTTTA | 0.0349
CGTATGAA | 0.158
ATGGACTA | 0.0039
ACAGACTA | -0.1
ACCAGAAG | -0.134
ATACCTTC | -0.0248
TGGTTACA | -0.168
ACCTTCAG | -0.0553
GTAAATTA | -0.132
CAGGCCGC | -0.19
CCGGCTCA | 0.0861
ATGCCGAG | 0.0212
ATTACGCC | -0.0353

Sequence | PBM E-score
ACTGAGAC | -0.0859
ATGGCTTC | -0.0329
CTGCGAGC | 0.188
TCGGTTAA | 0.113
CGGGTGGA | 0.084
AAATATCC | 0.0814
ACGCCGAC | 0.0112
ATCTGTCA | 0.168
AACCGAAT | 0.124
GCAAGTAA | 0.183
CTCGATTC | 0.15
ATCTTCAG | 0.112
GTGTGGCA | -0.0247
ATTTCCGG | 0.148
AAATTGGT | 0.268
GCAGGCTA | -0.2
ACGTGGGC | -0.163
CTGCCGGA | -0.0384
CACCTTGG | 0.0655
GATCCGAA | 0.243
AGAGGTAA | -0.0181
TATGATCA | 0.144
AGGGAAAC | -0.152
ATGGAACA | 0.0876
CACTAAAA | 0.256

Sequence | PBM E-score
CGTTAAAC | 0.0981
CCCTTAGC | 0.0218
AGGATCTA | -0.158
ATTACGGA | 0.14
GGAAAAGA | 0.00843
GGCCGCAC | -0.00372
AATCCCGT | 0.174
TCGTAACA | -0.00934
GATGTAAA | 0.135
GCCGCGCA | -0.0674
ACTCAGGA | -0.067
AAAACGTG | -0.0923
GCGGTAAC | 0.0493
AAGATCGG | -0.0603
CTCCTTGC | -0.0485
GGCCGAAA | 0.143
AACGAAGA | -0.0549
AAACGGTC | -0.0692
CCTATGGC | -0.138
AGAATGGG | -0.127
GGCAGTGA | -0.145
GCGTACGC | -0.271
ACTTTCGA | 0.0969
AAAAGTTA | 0.0506
AATCGGCA | 0.143

Sequence | PBM E-score
CAAAAGAG | 0.0252
CTCACTGA | -0.0153
GGGCAGAC | -0.106
CACCGGCC | -0.298
CGATGGAC | 0.0147
AATTCAAC | 0.256
ACTATCCG | 0.163
GACTACGC | -0.187
CTCCGGAA | -0.0511
ATATTTGG | 0.0811
CCTACAGG | -0.279
CCAGCCCG | -0.185
TCTTTCCA | 0.0837
AAAGGTAA | -0.0854
ATAACAAG | 0.222
CCAACGGG | 0.0593
CGGTATCA | 0.0571
AGAACATG | 0.136
GACGTCCC | 0.06
AGGTCGGA | -0.00885
CATGTATC | 0.08
TGCTTAAA | 0.0744
GCCCTTCA | -0.107
ATTTACTC | 0.271
TAAACCAA | 0.00513

Quoted at random: five entries already listed, in no set order.
Sequence | PBM E-score
ATTTACTC | 0.271
CATGTATC | 0.08
GGGCAGAC | -0.106
CACCGGCC | -0.298
CGATGGAC | 0.0147

(cont.)

Sequence | PBM E-score
AGCGTAAT | 0.00358
CGGCTGCC | -0.0998
GATTTAGC | -0.0322
TCCAGTCA | -0.0887
ACGGGCCG | -0.219
AGGATGTG | -0.0732
CTTCGGCC | -0.0613
ATAGACAT | -0.16
GCATGACA | 0.0603
GGAGACCC | 0.076
GATTGCCA | -0.0708
CTGCGTTA | 0.103
AACCAAAT | 0.126
ATCCACAG | 0.153
ATTATGAG | 0.149
AAAGTTGT | 0.297
AACGAGGC | -0.139
AGTAGGGG | 0.206
AGTCTTCA | -0.0972
GAGCAACC | 0.0868
GGCTGTGA | -0.0863
CGAACGGC | -0.0328
ATTGAATA | 0.19
ATTAGACG | 0.0759
AGTACAAC | -0.00458

Sequence | PBM E-score
CACTAGGG | -0.0793
GGACACAC | 0.00494
CGAGCGCG | 0.157
ACTCAGGG | 0.294
CCTAGTTC | 0.172
AAGTATAG | -0.127
CAATGCGG | 0.0816
TCTGGGAA | 0.00515
AGCTACCT | -0.0273
ACTCGTCG | -0.0102
TATTTTCA | 0.121
ATTGCGAG | 0.0375
AATCGACA | 0.175
ATGTCATA | -0.0397
GCCACCAA | -0.0325
CACACCAA | 0.063
TCGTCGAA | -0.0313
AGCTTTTG | -0.147
CTGCTCCA | 0.00131
GTTCTAGA | 0.0132
AATTACGA | 0.0898
CCTTGACG | -0.16
GAGTCTTA | -0.215
GGTCTCCA | 0.0144
AGCCGCGC | 0.198

Sequence | PBM E-score
CCATGACC | -0.159
AGAGCGTG | -0.0499
ATGCGAAA | 0.186
CTTATCTA | 0.17
ACACAGGT | 0.0453
AGTGGGAC | -0.102
ATAAGTAG | -0.0186
AGGTGGCC | -0.236
CACAAGGG | -0.0851
AATGAAGA | 0.14
AGATGCCA | -0.00436
GGCCCGCA | -0.122
CCTTCCAG | -0.146
TCTCGACA | -0.00705
CACCTAAC | -0.146
CTGGTTTA | -0.132
GCTTTCGA | -0.0826
AGTACACA | 0.134
CCACTTCG | -0.0208
CAACTGTA | 0.0529
CCCGAGGA | 0.0838
ATGTCAGG | 0.0486
